The target of one experiment is PDE1A (Homo sapiens, UniProt P54750). The experiment can be described thus: PDE1 inhibition assay (PDE1A), SPA with tritium labelled cAMP. Conditions: read-out: PDE1A, IC50; 15 nM tritium labelled cAMP, 1 hr at room temperature, SPA beads. On the procedure: (§1) PDE1A, PDE1B and PDE1C assays were performed as follows: the assays were performed in 60 μL samples containing a fixed amount of the PDE1 enzyme (sufficient to convert 20-25% of the cyclic nucleotide substrate), a buffer (50 mM HEPES (4-(2-hydroxyethyl)-1-piperazineethanesulfonic acid) pH 7.6; 10 mM MgCl2; 0.02% Tween20), 0.1 mg/ml BSA (bovine serum albumin), 15 nM tritium labelled cAMP and varying amounts of inhibitors. Reactions were initiated by addition of the cyclic nucleotide substrate, and reactions were allowed to proceed for 1 hr at room temperature before being terminated through mixing with 20 μL (0.2 mg) yttrium silicate SPA beads (PerkinElmer). The beads were allowed to settle for 1 hr in the dark before the plates were counted in a Wallac 1450 Microbeta counter. The measured signals were converted to activity relative to an uninhibited control (100%) and IC50 values were calculated using XIFit (model 205, IDBS).

Amino acid sequences for entries named in this document (tags omitted).
UniProt P54750, whole entry: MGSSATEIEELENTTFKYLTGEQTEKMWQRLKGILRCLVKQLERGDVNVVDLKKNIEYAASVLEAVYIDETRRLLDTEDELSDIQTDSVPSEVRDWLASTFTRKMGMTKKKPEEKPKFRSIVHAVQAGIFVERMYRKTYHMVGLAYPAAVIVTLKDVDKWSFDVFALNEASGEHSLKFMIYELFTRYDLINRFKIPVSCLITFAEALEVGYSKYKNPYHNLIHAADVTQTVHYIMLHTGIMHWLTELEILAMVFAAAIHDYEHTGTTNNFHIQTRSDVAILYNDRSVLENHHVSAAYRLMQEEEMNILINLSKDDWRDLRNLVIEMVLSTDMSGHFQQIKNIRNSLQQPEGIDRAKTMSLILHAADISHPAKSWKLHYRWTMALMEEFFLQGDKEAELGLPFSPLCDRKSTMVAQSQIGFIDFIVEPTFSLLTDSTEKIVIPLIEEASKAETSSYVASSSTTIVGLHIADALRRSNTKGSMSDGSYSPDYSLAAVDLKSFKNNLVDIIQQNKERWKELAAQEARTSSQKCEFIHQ
UniProt Q01064, whole entry: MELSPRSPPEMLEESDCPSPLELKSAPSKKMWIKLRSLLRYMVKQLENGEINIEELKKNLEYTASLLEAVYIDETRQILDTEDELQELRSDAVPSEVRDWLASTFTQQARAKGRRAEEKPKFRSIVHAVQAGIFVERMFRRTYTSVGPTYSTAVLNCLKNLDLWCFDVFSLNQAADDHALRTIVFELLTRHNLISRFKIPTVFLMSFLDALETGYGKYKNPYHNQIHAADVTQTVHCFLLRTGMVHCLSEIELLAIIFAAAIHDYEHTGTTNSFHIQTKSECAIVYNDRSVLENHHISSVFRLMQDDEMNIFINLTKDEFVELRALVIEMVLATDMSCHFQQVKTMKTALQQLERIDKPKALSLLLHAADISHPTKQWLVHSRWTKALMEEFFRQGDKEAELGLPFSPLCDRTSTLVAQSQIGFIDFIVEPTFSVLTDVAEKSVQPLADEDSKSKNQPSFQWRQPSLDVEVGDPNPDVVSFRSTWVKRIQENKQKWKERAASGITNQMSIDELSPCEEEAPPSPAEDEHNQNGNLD
UniProt Q14123, whole entry: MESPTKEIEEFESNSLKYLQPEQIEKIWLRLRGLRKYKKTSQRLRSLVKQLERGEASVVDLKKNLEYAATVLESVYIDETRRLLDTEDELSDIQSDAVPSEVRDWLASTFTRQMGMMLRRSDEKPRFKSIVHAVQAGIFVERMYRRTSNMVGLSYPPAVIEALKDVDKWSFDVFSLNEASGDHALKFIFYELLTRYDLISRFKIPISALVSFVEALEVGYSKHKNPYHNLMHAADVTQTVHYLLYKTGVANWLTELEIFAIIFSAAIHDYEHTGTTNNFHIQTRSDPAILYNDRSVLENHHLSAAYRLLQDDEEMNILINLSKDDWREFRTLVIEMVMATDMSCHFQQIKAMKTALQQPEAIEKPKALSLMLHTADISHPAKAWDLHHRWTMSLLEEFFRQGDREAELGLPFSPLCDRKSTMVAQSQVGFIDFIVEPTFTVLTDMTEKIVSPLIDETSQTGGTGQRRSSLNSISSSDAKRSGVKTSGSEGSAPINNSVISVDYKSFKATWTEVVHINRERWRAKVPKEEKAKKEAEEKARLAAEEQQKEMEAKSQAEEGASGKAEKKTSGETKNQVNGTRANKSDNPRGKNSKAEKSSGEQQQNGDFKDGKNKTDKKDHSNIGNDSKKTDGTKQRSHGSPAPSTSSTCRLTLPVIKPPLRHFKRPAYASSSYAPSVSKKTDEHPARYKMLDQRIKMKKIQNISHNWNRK

For a further experiment, the target named is PDE1B (Homo sapiens, UniProt Q01064). The experiment can be described thus: PDE1 inhibition assay (PDE1B), SPA with tritium labelled cAMP. Conditions: read-out: PDE1B, IC50; 15 nM tritium labelled cAMP, 1 hr at room temperature, SPA beads.
For the next experiment, the target named is PDE1C (Homo sapiens, UniProt Q14123). Description: PDE1 inhibition assay (PDE1C), SPA with tritium labelled cAMP. As to conditions: read-out: PDE1C, IC50; 15 nM tritium labelled cAMP, 1 hr at room temperature, SPA beads. On the procedure:
as §1

The structures appear in SMILES notation. The match of structure and compound is tentative.

With `CCOc1ncccc1-c1cc(NCc2cn(C)cn2)c2c(C(C)C)nn(C)c2n1`, the results for the IC50 at PDE1A, at PDE1B and on PDE1C were 7.2 nM, 0.71 nM and 12 nM, respectively.

The record behind these values is patent publication US10351561B2, “Pyrazolo[3,4-b]pyridines and imidazo[1,5-b]pyridazines as PDE1 inhibitors” (H. Lundbeck A/S, priority 2016, dated 2019).
